This continues a long series; more values of the same kind are listed elsewhere.

The chains behind the UniProt entries cited, without tags or fusion partners.
UniProt Q61188, whole entry: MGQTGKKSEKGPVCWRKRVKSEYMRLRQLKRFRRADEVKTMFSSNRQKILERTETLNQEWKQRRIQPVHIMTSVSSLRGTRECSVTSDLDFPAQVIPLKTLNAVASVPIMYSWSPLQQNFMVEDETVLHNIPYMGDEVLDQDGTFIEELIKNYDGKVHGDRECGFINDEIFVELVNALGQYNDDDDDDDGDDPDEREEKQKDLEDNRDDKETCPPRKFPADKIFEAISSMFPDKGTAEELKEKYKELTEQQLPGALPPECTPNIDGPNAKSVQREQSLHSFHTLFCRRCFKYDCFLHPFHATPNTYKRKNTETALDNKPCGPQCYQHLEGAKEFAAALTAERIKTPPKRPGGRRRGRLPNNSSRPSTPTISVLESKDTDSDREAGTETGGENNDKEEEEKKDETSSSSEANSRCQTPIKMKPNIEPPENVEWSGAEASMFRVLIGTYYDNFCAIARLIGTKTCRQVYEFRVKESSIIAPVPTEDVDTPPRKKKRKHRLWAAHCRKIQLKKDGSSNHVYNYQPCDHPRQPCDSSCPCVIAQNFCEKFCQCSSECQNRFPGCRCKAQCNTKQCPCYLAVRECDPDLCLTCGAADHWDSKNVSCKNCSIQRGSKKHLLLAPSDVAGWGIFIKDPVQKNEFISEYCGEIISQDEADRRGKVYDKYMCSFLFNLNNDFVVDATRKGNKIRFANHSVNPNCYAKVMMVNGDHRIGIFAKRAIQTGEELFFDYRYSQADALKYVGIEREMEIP

Common to all, as to type: cell-based
For test [1], the target named is T1, RNA polymerase II (Mus musculus) (UniProt P08775+Q8CFI7+P97760+A0A3Q4L2S8+Q80UW8+P61219+P62488+Q923G2+P60898+O08740+Q63871+P62876). As to the kind of experiment: Inhibition of RNA polymerase II in mouse B16-F1 migrating cells assessed as fold change in Vhl-RNA stability at 0.1 mM measured by ChIP-seq analysis relative to control cells.
Test [2] deals with T1, RNA polymerase II (Mus musculus). As to the kind of experiment: Inhibition of RNA polymerase II in mouse B16-F1 migrating cells assessed as fold change in Aldoa-RNA stability at 0.1 mM measured by ChIP-seq analysis relative to control cells.
Test [3] has the same target. As to the kind of experiment: Inhibition of RNA polymerase II in mouse B16-F1 migrating cells assessed as fold change in Tmed3-RNA stability at 0.1 mM measured by ChIP-seq analysis relative to control cells.
Test [4] has the same target. As to the kind of experiment: Inhibition of RNA polymerase II in mouse B16-F1 migrating cells assessed as fold change in Emp3-RNA stability at 0.1 mM measured by ChIP-seq analysis relative to control cells.
Test [5] has the same target. As to the kind of experiment: Inhibition of RNA polymerase II in mouse B16-F1 migrating cells assessed as fold change in Agtrap-RNA stability at 0.1 mM measured by ChIP-seq analysis relative to control cells.
For test [6] the target is unchanged. As to the kind of experiment: Inhibition of RNA polymerase II in mouse B16-F1 migrating cells assessed as fold change in Tax1bp3-RNA stability at 0.1 mM measured by ChIP-seq analysis relative to control cells.
The target is the same in test [7]. As to the kind of experiment: Inhibition of RNA polymerase II in mouse B16-F1 migrating cells assessed as fold change in Xrn2-RNA stability at 0.1 mM measured by ChIP-seq analysis relative to control cells.
Test [8] has the same target. As to the kind of experiment: Inhibition of RNA polymerase II in mouse B16-F1 migrating cells assessed as fold change in Bbs7-RNA stability at 0.1 mM measured by ChIP-seq analysis relative to control cells.
For test [9] the target is unchanged. As to the kind of experiment: Inhibition of RNA polymerase II in mouse B16-F1 migrating cells assessed as fold change in Ubl3-RNA stability at 0.1 mM measured by ChIP-seq analysis relative to control cells.
Test [10] has the same target. As to the kind of experiment: Inhibition of RNA polymerase II in mouse B16-F1 migrating cells assessed as fold change in Chuk-RNA stability at 0.1 mM measured by ChIP-seq analysis relative to control cells.
For test [11] the target is unchanged. As to the kind of experiment: Inhibition of RNA polymerase II in mouse B16-F1 migrating cells assessed as fold change in Ranbp2-RNA stability at 0.1 mM measured by ChIP-seq analysis relative to control cells.
Test [12] shares this target. As to the kind of experiment: Inhibition of RNA polymerase II in mouse B16-F1 migrating cells assessed as fold change in March7-RNA stability at 0.1 mM measured by ChIP-seq analysis relative to control cells.
Test [13] shares this target. As to the kind of experiment: Inhibition of RNA polymerase II in mouse B16-F1 migrating cells assessed as fold change in Zfp326-RNA stability at 0.1 mM measured by ChIP-seq analysis relative to control cells.
The target in test [14] is Histone-lysine N-methyltransferase EZH2 (Mus musculus) (UniProt Q61188). As to the kind of experiment: Inhibition of EZH2 in mouse B16-F1 migrating cells assessed as fold change in H3K27me3-dependent regulated Zyx-mRNA expression at 3 uM measured by ChIP-seq analysis relative to control cells.
Test [15] shares this target. As to the kind of experiment: Inhibition of EZH2 in mouse B16-F1 migrating cells assessed as fold change in H3K27me3-dependent regulated Hmgn5-mRNA expression at 3 uM measured by ChIP-seq analysis relative to control cells.
For test [16] the target is unchanged. As to the kind of experiment: Inhibition of EZH2 in mouse B16-F1 migrating cells assessed as fold change in H3K27me3-independent regulated Prelid2-mRNA expression at 3 uM measured by ChIP-seq analysis relative to control cells.
The target is the same in test [17]. As to the kind of experiment: Inhibition of EZH2 in mouse B16-F1 migrating cells assessed as fold change in H3K27me3-independent regulated Shb-mRNA expression at 3 uM measured by ChIP-seq analysis relative to control cells.
For test [18] the target is unchanged. As to the kind of experiment: Inhibition of EZH2 in mouse B16-F1 migrating cells assessed as fold change in H3K27me3-independent regulated Higd1a-mRNA expression at 3 uM measured by ChIP-seq analysis relative to control cells.
Test [19] has the same target. As to the kind of experiment: Inhibition of EZH2 in mouse B16-F1 migrating cells assessed as fold change in H3K27me3-independent regulated D330045A20Rik-mRNA expression at 3 uM measured by ChIP-seq analysis relative to control cells.
Test [20] shares this target. As to the kind of experiment: Inhibition of EZH2 in mouse B16-F1 migrating cells assessed as fold change in H3K27me3-buffered regulated Gm16316-mRNA expression at 3 uM measured by ChIP-seq analysis relative to control cells.
The target is the same in test [21]. As to the kind of experiment: Inhibition of EZH2 in mouse B16-F1 migrating cells assessed as fold change in H3K27me3-buffered regulated Ppargc1a-mRNA expression at 3 uM measured by ChIP-seq analysis relative to control cells.
Test [22] shares this target. As to the kind of experiment: Inhibition of EZH2 in mouse B16-F1 migrating cells assessed as fold change in H3K27me3-buffered regulated S100a1-mRNA expression at 3 uM measured by ChIP-seq analysis relative to control cells.
The target is the same in test [23]. As to the kind of experiment: Inhibition of EZH2 in mouse B16-F1 migrating cells assessed as fold change in H3K27me3-buffered regulated Lrrc27-mRNA expression at 3 uM measured by ChIP-seq analysis relative to control cells.
Test [24] shares this target. As to the kind of experiment: Inhibition of EZH2 in mouse B16-F1 migrating cells assessed as fold change in H3K27me3-buffered regulated Cdc42se1-mRNA expression at 3 uM measured by ChIP-seq analysis relative to control cells.
Test [25] shares this target. As to the kind of experiment: Inhibition of EZH2 in mouse B16-F1 migrating cells assessed as fold change in H3K27me3-buffered regulated Clk2-mRNA expression at 3 uM measured by ChIP-seq analysis relative to control cells.
The target is the same in test [26]. As to the kind of experiment: Inhibition of EZH2 in mouse B16-F1 migrating cells assessed as fold change in H3K27me3-buffered regulated Ccdc14-mRNA expression at 3 uM measured by ChIP-seq analysis relative to control cells.
The target is the same in test [27]. As to the kind of experiment: Inhibition of EZH2 in mouse B16-F1 migrating cells assessed as fold change in H3K27me3-buffered regulated Bard1-mRNA expression at 3 uM measured by ChIP-seq analysis relative to control cells.
For test [28] the target is unchanged. As to the kind of experiment: Inhibition of EZH2 in mouse B16-F1 migrating cells assessed as fold change in H3K27me3-buffered regulated Zic2-mRNA expression at 3 uM measured by ChIP-seq analysis relative to control cells.
For test [29] the target is unchanged. As to the kind of experiment: Inhibition of EZH2 in mouse B16-F1 migrating cells assessed as fold change in H3K27me3-buffered regulated Sdr39u1-mRNA expression at 3 uM measured by ChIP-seq analysis relative to control cells.
Test [30] shares this target. As to the kind of experiment: Inhibition of EZH2 in mouse B16-F1 migrating cells assessed as fold change in H3K27me3-buffered regulated Sema7a-mRNA expression at 3 uM measured by ChIP-seq analysis relative to control cells.

`OC[C@H]1O[C@@H](n2cnc3cc(Cl)c(Cl)cc32)[C@H](O)[C@@H]1O`: the log2FC worked out at 0.82 in [1]; 0.65 in test [2]; 0.53 in test [3]; 0.52 in test [4]; 0.46 in test [5]; 0.42 in test [6]. Further, the log2FC was -0.46 in [7]; -0.49 in test [8]; -0.49 in [9]; -0.59 in test [10]; -0.6 in [11]; -0.69 in [12]. The log2FC in test [13] is -0.7.
With `CCCc1cc(C)[nH]c(=O)c1CNC(=O)c1cc(-c2ccnc(N3CCN(C)CC3)c2)cc2c1cnn2C(C)C`, the log2FC is 0.17 in test [14]; -0.32 in [15]; 0.58 in [16]; 0.63 in test [17]; 0.42 in test [18]; -0.79 in [19]. Also, the log2FC in test [20] is 1.17; in test [21], 0.66; in [22], 0.46; in test [23], 0.42; in test [24], -0.39; in test [25], -0.42. In addition, the log2FC in test [26] is -0.43; in [27], -0.44; in [28], -0.54; in test [29], -0.82; in [30] it was -1.04.
